# Test results as given in the supplement of paper PMC8728848.
# Some of the results follow.
# What was measured:
# Assay in all cases: glycan array binding signal (z-score within array); higher = stronger binding
# Details in all cases: glycan notation: IUPAC condensed, linker removed
# [1] = biological target: Neu5Ac(a2-6)Gal(b1-4)GlcNAc(b1-2)Man(a1-3)[Man(a1-6)]Man(b1-4)GlcNAc(b1-4)GlcNAc
# Outline: (§1)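 Glycan array data came from 3228 arrays in the Consortium for Functional Glycomics database, and only arrays with an available protein sequence were kept. Glycan names were put into IUPAC-condensed notation, and columns mapping to the same glycan were averaged. The binding signal is a within-array Z-score, averaged across arrays of one protein sequence run at different concentrations or buffers and across linkers. A negative Z-score can be read as non-binding.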
# [2] = biological target: Neu5Ac(a2-6)Gal(b1-4)GlcNAc(b1-2)Man(a1-3)[Neu5Ac(a2-3)Gal(b1-4)GlcNAc(b1-2)Man(a1-6)]Man(b1-4)GlcNAc(b1-4)GlcNAc
# Outline: as §1
# [3] = biological target: Neu5Ac(a2-6)Gal(b1-4)GlcNAc(b1-2)Man(a1-3)[Neu5Ac(a2-6)Gal(b1-4)GlcNAc(b1-2)Man(a1-6)]Man(b1-4)GlcNAc(b1-4)GlcNAc
# Outline: as §1
# [4] = biological target: Neu5Ac(a2-6)Gal(b1-4)GlcNAc(b1-2)Man(a1-3)[Neu5Ac(a2-6)Gal(b1-4)GlcNAc(b1-2)Man(a1-6)]Man(b1-4)GlcNAc(b1-4)[Fuc(a1-6)]GlcNAc
# Outline: as §1
# [5] = biological target: Neu5Ac(a2-6)Gal(b1-4)GlcNAc(b1-2)Man(a1-6)Man(b1-4)GlcNAc(b1-4)GlcNAc
# Outline: as §1
# [6] = biological target: Neu5Ac(a2-6)Gal(b1-4)GlcNAc(b1-2)Man(a1-6)[Gal(b1-4)GlcNAc(b1-2)Man(a1-3)]Man(b1-4)GlcNAc(b1-4)GlcNAc
# Outline: as §1
# [7] = biological target: Neu5Ac(a2-6)Gal(b1-4)GlcNAc(b1-2)Man(a1-6)[GlcNAc(b1-2)Man(a1-3)]Man(b1-4)GlcNAc(b1-4)GlcNAc
# Outline: as §1
# [8] = biological target: Neu5Ac(a2-6)Gal(b1-4)GlcNAc(b1-2)Man(a1-6)[Man(a1-3)]Man(b1-4)GlcNAc(b1-4)GlcNAc
# Outline: as §1
# [9] = biological target: Neu5Ac(a2-6)Gal(b1-4)GlcNAc(b1-2)[Neu5Ac(a2-6)Gal(b1-4)GlcNAc(b1-4)]Man(a1-3)[GlcNAc(b1-4)][Neu5Ac(a2-6)Gal(b1-4)GlcNAc(b1-2)[Neu5Ac(a2-6)Gal(b1-4)GlcNAc(b1-6)]Man(a1-6)]Man(b1-4)GlcNAc(b1-4)GlcNAc
# Outline: as §1
# [10] = biological target: Neu5Ac(a2-6)Gal(b1-4)GlcNAc(b1-2)[Neu5Ac(a2-6)Gal(b1-4)GlcNAc(b1-4)]Man(a1-3)[GlcNAc(b1-4)][Neu5Ac(a2-6)Gal(b1-4)GlcNAc(b1-4)Man(a1-6)]Man(b1-4)GlcNAc(b1-4)GlcNAc
# Outline: as §1
# [11] = biological target: Neu5Ac(a2-6)Gal(b1-4)GlcNAc(b1-2)[Neu5Ac(a2-6)Gal(b1-4)GlcNAc(b1-6)]Man(a1-6)[Neu5Ac(a2-6)Gal(b1-4)GlcNAc(b1-2)Man(a1-3)][GlcNAc(b1-4)]Man(b1-4)GlcNAc(b1-4)GlcNAc
# Outline: as §1
# [12] = biological target: Neu5Ac(a2-6)Gal(b1-4)GlcNAc(b1-3)Gal(b1-3)GlcNAc
# Outline: as §1
# [13] = biological target: Neu5Ac(a2-6)Gal(b1-4)GlcNAc(b1-3)Gal(b1-4)GlcNAc
# Outline: as §1
# [14] = biological target: Neu5Ac(a2-6)Gal(b1-4)GlcNAc(b1-3)Gal(b1-4)GlcNAc(b1-2)Man(a1-3)[Neu5Ac(a2-6)Gal(b1-4)GlcNAc(b1-3)Gal(b1-4)GlcNAc(b1-2)Man(a1-6)]GalNAc
# Outline: as §1
# [15] = biological target: Neu5Ac(a2-6)Gal(b1-4)GlcNAc(b1-3)Gal(b1-4)GlcNAc(b1-3)Gal(b1-4)GlcNAc
# Outline: as §1
# [16] = biological target: Neu5Ac(a2-6)Gal(b1-4)GlcNAc(b1-3)Gal(b1-4)GlcNAc(b1-3)Gal(b1-4)GlcNAc(b1-2)Man(a1-3)[Neu5Ac(a2-6)Gal(b1-4)GlcNAc(b1-3)Gal(b1-4)GlcNAc(b1-3)Gal(b1-4)GlcNAc(b1-2)Man(a1-6)]GalNAc
# Outline: as §1
# [17] = biological target: Neu5Ac(a2-6)Gal(b1-4)GlcNAc(b1-3)Gal(b1-4)GlcNAc(b1-3)GalNAc
# Outline: as §1
# [18] = biological target: Neu5Ac(a2-6)Gal(b1-4)GlcNAc(b1-3)Gal(b1-4)GlcNAc(b1-3)[Neu5Ac(a2-6)Gal(b1-4)GlcNAc(b1-3)Gal(b1-4)GlcNAc(b1-6)]GalNAc
# Outline: as §1
# [19] = biological target: Neu5Ac(a2-6)Gal(b1-4)GlcNAc(b1-3)Gal(b1-4)GlcNAc(b1-6)[Gal(b1-3)]GalNAc
# Outline: as §1
# [20] = biological target: Neu5Ac(a2-6)Gal(b1-4)GlcNAc(b1-3)Gal(b1-4)[Fuc(a1-3)]GlcNAc(b1-3)Gal(b1-4)[Fuc(a1-3)]GlcNAc
# Outline: as §1
# [21] = biological target: Neu5Ac(a2-6)Gal(b1-4)GlcNAc(b1-3)GalNAc
# Outline: as §1
# [22] = biological target: Neu5Ac(a2-6)Gal(b1-4)GlcNAc(b1-3)[Neu5Ac(a2-6)Gal(b1-4)GlcNAc(b1-6)]GalNAc
# Outline: as §1
# [23] = biological target: Neu5Ac(a2-6)Gal(b1-4)GlcNAc(b1-6)GalNAc
# Outline: as §1
# [24] = biological target: Neu5Ac(a2-6)Gal(b1-4)GlcNAc(b1-6)[Gal(b1-3)GlcNAc(b1-3)]Gal(b1-4)Glc
# Outline: as §1
# [25] = biological target: Neu5Ac(a2-6)Gal(b1-4)GlcNAc(b1-6)[Gal(b1-3)]GalNAc
# Outline: as §1
# [26] = biological target: Neu5Ac(a2-6)Gal(b1-4)GlcNAc6S
# Outline: as §1
# [27] = biological target: Neu5Ac(a2-6)GalNAc
# Outline: as §1
# [28] = biological target: Neu5Ac(a2-6)GalNAc(b1-4)GlcNAc
# Outline: as §1
# [29] = biological target: Neu5Ac(a2-6)GalNAc(b1-4)GlcNAc6S
# Outline: as §1
# [30] = biological target: Neu5Ac(a2-6)GlcNAc(b1-4)GlcNAc
# Outline: as §1
binder,measurement,setting,value
"CD4 (Rattus norvegicus), P05540 (protein) MCRGFSFRHLLPLLLLQLSKLLVVTQGSTSITAYKSEGESAEFSFPLNLGEESLQGELRWKAEKAPSSQSWITFSLKNQKVSVQKSTSNPKFQLSETLPLTLQIPQVSLQFAGSGNLTLTLDRGILYQEVNLVVMKVTQPDSNTLTCEVMGPTSPKMRLILKQENQEARVSRQEKVIQVQAPEAGVWQCLLSEGEEVKMDSKIQVLSKGLNSGGGSGGGTGGGDLAPQMLRELQETNAALQDVRELLRQQVKEITFLKNTVMECDACGLDRNLPPLAPLGPHPETLVKVKDAEDQLGARVGYIELDLNSGKILESFRPEERFPMMSTFKVLLCGAVLSRIDAGQEQLGRRIHYSQNDLVEYSPVTEKHLTDGMTVRELCSAAITMSDNTAANLLLTTIGGPKELTAFLHNMGDHVTRLDRWEPELNEAIPNDERDTTMPVAMATTLRKLLTGELLTLASRQQLIDWMEADKVAGPLLRSALPAGWFIADKSGAGERGSRGIIAALGPDGKPSRIVVIYTTGSQATMDERNRQIAEIGASLIKHW",glycan array binding signal (z-score),[1],-0.151
same,glycan array binding signal (z-score),[2],-1.1
same,glycan array binding signal (z-score),[3],-0.21
same,glycan array binding signal (z-score),[4],-0.435
same,glycan array binding signal (z-score),[5],-0.621
same,glycan array binding signal (z-score),[6],-0.832
same,glycan array binding signal (z-score),[7],-0.98
same,glycan array binding signal (z-score),[8],-0.427
same,glycan array binding signal (z-score),[9],0.552
same,glycan array binding signal (z-score),[10],0.125
same,glycan array binding signal (z-score),[11],-1.55
same,glycan array binding signal (z-score),[12],-0.948
same,glycan array binding signal (z-score),[13],-0.557
same,glycan array binding signal (z-score),[14],1.53
same,glycan array binding signal (z-score),[15],-0.785
same,glycan array binding signal (z-score),[16],0.563
same,glycan array binding signal (z-score),[17],-0.886
same,glycan array binding signal (z-score),[18],-1.11
same,glycan array binding signal (z-score),[19],-0.127
same,glycan array binding signal (z-score),[20],1.64
same,glycan array binding signal (z-score),[21],1.25
same,glycan array binding signal (z-score),[22],0.831
same,glycan array binding signal (z-score),[23],-1.36
same,glycan array binding signal (z-score),[24],0.644
same,glycan array binding signal (z-score),[25],0.934
same,glycan array binding signal (z-score),[26],0.111
same,glycan array binding signal (z-score),[27],-0.467
same,glycan array binding signal (z-score),[28],0.314
same,glycan array binding signal (z-score),[29],0.186
same,glycan array binding signal (z-score),[30],-1.34

# A second format for part of the listing above:
binder | measurement | setting | value
CD4 (Rattus norvegicus), P05540 (protein) MCRGFSFRHLLPLLLLQLSKLLVVTQGSTSITAYKSEGESAEFSFPLNLGEESLQGELRWKAEKAPSSQSWITFSLKNQKVSVQKSTSNPKFQLSETLPLTLQIPQVSLQFAGSGNLTLTLDRGILYQEVNLVVMKVTQPDSNTLTCEVMGPTSPKMRLILKQENQEARVSRQEKVIQVQAPEAGVWQCLLSEGEEVKMDSKIQVLSKGLNSGGGSGGGTGGGDLAPQMLRELQETNAALQDVRELLRQQVKEITFLKNTVMECDACGLDRNLPPLAPLGPHPETLVKVKDAEDQLGARVGYIELDLNSGKILESFRPEERFPMMSTFKVLLCGAVLSRIDAGQEQLGRRIHYSQNDLVEYSPVTEKHLTDGMTVRELCSAAITMSDNTAANLLLTTIGGPKELTAFLHNMGDHVTRLDRWEPELNEAIPNDERDTTMPVAMATTLRKLLTGELLTLASRQQLIDWMEADKVAGPLLRSALPAGWFIADKSGAGERGSRGIIAALGPDGKPSRIVVIYTTGSQATMDERNRQIAEIGASLIKHW | glycan array binding signal (z-score) | [22] | 0.831
same | glycan array binding signal (z-score) | [23] | -1.36
